Test results: paper PMC3961655, “Methyllysine Reader Plant Homeodomain (PHD) Finger Protein 20-like 1 (PHF20L1) Antagonizes DNA (Cytosine-5) Methyltransferase 1 (DNMT1) Proteasomal Degradation*” (The Journal of Biological Chemistry, 2014)
No constants are given. Whether binding was seen depends on the method and setting. A result given as binding can be weak or reduced; the word gives no strength. Where a sequence is shown, tags or fusion partners need not be part of it.

Biological target: GST-MBT domain fusion derived from PHF20L1
Experiment: peptide or protein array; CADOR (chromatin-associated domain array): domains fused to GST spotted on the chip, biotin-DNMT1K142me1 peptide bound and detected on it; both purified

For LSKPRTPRRSKSDGEAKPE (monomethyl-lysine K(me1) at Lys-142; biotin, before the first residue) [biotin-tagged DNMT1K142me1 peptide (amino acids 132-150 of DNMT1 with monomethylated Lys-142)], the binding was “binds”.
